From PubChem BioAssay AID2517 (National Center for Advancing Translational Sciences (NCATS), 2010)
Several values for one entry are separate records, joined by “and”; a condition that tells them apart may be missing. Identical values can stand only once. In all, about 350,000 compounds went through this assay and about 1,200 (0.34%) were called active. The inconclusive results got no clear call from the source; some entries with a clear call stand among them for comparison. The call rests on the fitted dose curve; in most records, active means well fitted inhibition curve with a large enough effect; inconclusive means small, poorly fitted or top-dose-only effect; inactive means no such curve, though single readings can be large or run the other way. Potencies of inconclusive entries are doubtful fits and often do not repeat.

By UniProt entry, the sequences of proteins in these tests, tags left out.
UniProt P27695, whole entry, looked up: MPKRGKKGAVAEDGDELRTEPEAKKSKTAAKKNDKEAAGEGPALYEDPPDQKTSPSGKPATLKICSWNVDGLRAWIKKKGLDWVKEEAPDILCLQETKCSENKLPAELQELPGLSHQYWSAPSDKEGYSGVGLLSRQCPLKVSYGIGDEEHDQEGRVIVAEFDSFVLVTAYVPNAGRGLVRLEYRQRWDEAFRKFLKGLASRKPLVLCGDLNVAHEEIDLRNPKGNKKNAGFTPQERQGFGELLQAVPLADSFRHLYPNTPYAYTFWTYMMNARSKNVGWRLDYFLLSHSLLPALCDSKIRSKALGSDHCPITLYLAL

Biological target: DNA repair nuclease/redox regulator APEX1 (Homo sapiens) (UniProt P27695)
Assay: qHTS Assay for Inhibitors of the Human Apurinic/apyrimidinic Endonuclease 1 (APE1); further: nearly all actives have a fitted effect of over 55% in size;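 on activity change, negative = inhibition: plate controls were vehicle for no effect and reference inhibitor for full effect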
Conditions: recombinant APE1, TAMRA/BHQ-2 abasic DNA cleavage fluorescence; activity change, negative = inhibition: at 65.8 µM (top of the series)
In short: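 Kinetic fluorescence read (525 ex/598 em nm, three reads 60 s apart) of AP-site incision; signal = third minus first read. Enzyme 0.75 nM, dual-labelled THF duplex 50 nM, compound preincubation 15 min RT.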
Potency means the concentration at half of the fitted maximal effect.

| Compound | Potency | activity change, negative = inhibition |
| --- | --- | --- |
| CC(=O)N(\C=C/C=C/C=C1\Sc2ccccc2C1=O)c1ccccc1 | inconclusive: 39.8 µM [inhibitor, single point] |  |
| CCc1ccccc1N(CC(=O)NCc1ccco1)C(=O)c1snc(C(N)=O)c1N | inconclusive: 39.8 µM [inhibitor, single point] |  |
| CCOC(=O)c1c(NC(=O)CN2CCN(c3ccc(Cl)cc3)CC2)sc(C)c1C | inconclusive: 7.08 µM [inhibitor, single point] |  |
| COc1ccc(S(=O)(=O)Nc2cc(SCC(=O)O)c(O)c3ccccc23)cc1 |  | inactive: 25.9% |
| COc1cccc(CNC(=O)C2CCN(c3ncnc4c3nc3n4CCCCC3)CC2)c1 | inconclusive: 21.2 µM [inhibitor, single point] |  |
| O=C1c2c(O)cc(O)cc2O[C@H](c2ccc(O)c(O)c2)C1O (stereo partly drawn) | inconclusive: 15.8 µM [inhibitor, partial curve] |  |
| CCOC(=O)CN(C(=O)CSc1nnc(C)n1-c1ccccc1)c1ccccc1 | inconclusive: 25.1 µM [inhibitor, single point] |  |
| O=C(OCc1cc(=O)n2c(n1)sc1ccccc12)c1ccc(O)cc1 | inconclusive: 31.6 µM [inhibitor, partial curve] |  |
| COc1ccc(S(=O)(=O)N2CCCC2)cc1C(=O)N1CCOCC1 | inconclusive: 39.8 µM [inhibitor, single point] |  |
| Cc1ccc(C(=O)c2cc(C)sc2NC(=O)CN2CCN(C(=O)c3ccco3)CC2)cc1 | inconclusive: 25.1 µM [inhibitor, single point] |  |
| Cc1cc(=O)[nH]c(N/N=C/c2c(O)n(-c3ccccc3)c(=O)c3ccccc23)n1 | inconclusive: 17.8 µM [inhibitor, single point] |  |
| CC1(c2ccccc2)OC(C(=O)O)=CC1=O (stereo not drawn) |  | inactive: 3.57% |
| O=C(COC(=O)c1cc(S(=O)(=O)NCc2ccccc2)ccc1O)NCc1ccccc1 | inconclusive: 39.8 µM [inhibitor, single point] |  |
| COc1ccccc1-c1ccc2ncnc(N3CCNCC3)c2c1 | inconclusive: 39.8 µM [inhibitor, single point] |  |
| CCN(CC)c1ccc(S(=O)(=O)N2CCOCC2)cc1NC(=O)Cn1nc(C)c([N+](=O)[O-])c1C | inconclusive: 8.44 µM [inhibitor, single point] |  |
| C#CCCOC(=O)Nc1ccccc1 | inconclusive: 0.005 µM [inhibitor, full curve, poor fit] |  |
| O=C(N/N=C\c1c(O)ccc2ccccc12)c1ccc(O)cc1 |  | inactive: -18.6% |
| O=C1CC(c2ccco2)CC(O)=C1C=Nc1ccc(Br)cc1 (stereo not drawn) |  | inactive: -7.46% |
| CCOC(=O)C1=C(N)n2c(s/c(=C\c3ccco3)c2=O)=C(C(=O)OCC)C1c1ccco1 (stereo not drawn) | inconclusive: 28.2 µM [inhibitor, single point] |  |
| O=C(/C=C/c1ccc(OC(F)F)cc1)OCC(=O)N1CCN(C(=O)c2ccco2)CC1 | inconclusive: 35.5 µM [inhibitor, partial curve] |  |
| COc1cc(/C=C2\C(=O)NN(c3ccccc3)C2=O)cc([N+](=O)[O-])c1O | inconclusive: 22.4 µM [inhibitor, single point] |  |

| Compound | Potency | activity change, negative = inhibition |
| --- | --- | --- |
| CC(=O)Nc1ccc(NC(=O)C(C)OC(=O)CN(C)S(=O)(=O)c2ccc(Cl)cc2)cc1 (stereo not drawn) |  | inactive: -0.26% |
| CN1c2ccccc2C(=O)NC1c1ccc([N+](=O)[O-])s1 (stereo not drawn) | inconclusive: 39.8 µM [inhibitor, single point] |  |
| Cc1cccnc1NC(=O)c1ccc(Br)o1 |  | inactive: 3.86% |
| Cc1c(/C=N/NC(=O)C2(O)c3ccccc3-c3ccccc32)cnn1C | inconclusive: 44.7 µM [inhibitor, single point] |  |
| COc1ccc(C2=NN(c3nc(-c4ccccc4)c(CC(=O)O)s3)C(c3ccco3)C2)cc1 (stereo not drawn) |  | inactive: -5.27% |
| CC(=O)c1cc2c(=O)c3cc(C)ccc3oc2nc1C |  | inactive: -4.04% |
| CCN1CCCC1CN(Cc1cc2cc(C)cc(C)c2[nH]c1=O)C(=O)Nc1ccccc1OC (stereo not drawn) | inconclusive: 1.58 µM [inhibitor, partial curve, poor fit] |  |
| Cc1nc(C)c(-c2ccn(C(=O)NC(C)C)n2)s1 | inconclusive: 6.31 µM [inhibitor, single point] |  |
| CCn1c(=N)n(CC(O)c2ccco2)c2ccccc21 (stereo not drawn) | inconclusive: 0.0158 µM [inhibitor, full curve, poor fit] |  |
| O=C(COc1ccc([N+](=O)[O-])cc1)Nc1cc(C(=O)O)cc(C(=O)O)c1 |  | inactive: -3.28% |
| COc1cccc(NS(=O)(=O)c2ccc3[nH]cc(C(=O)NCCc4ccc(C)cc4)c(=O)c3c2)c1 | inconclusive: 18.9 µM [inhibitor, partial curve] |  |
| COc1ccccc1NC(=O)C1(C)Cc2ccccc2C(=O)O1 (stereo not drawn) | inconclusive: 44.7 µM [inhibitor, partial curve] |  |
| O=c1[nH][nH]c(C(F)(F)F)c1C=Nc1ccccc1 |  | inactive: 14.8% |
| S=c1[nH]nc(Cc2ccccc2)n1-c1cccc2ccccc12 |  | inactive: 7.54% |
| O=C(N/N=C/c1ccc([N+](=O)[O-])cc1)c1c[nH]c2ccccc12 | inconclusive: 39.8 µM [inhibitor, single point] |  |
| Cc1ccc(NC(=O)c2nc[nH]c2C(=O)N[C@@H](CCCCNC(=O)OC(C)(C)C)C(=O)OC(C)(C)C)cc1 | inconclusive: 0.005 µM [inhibitor, full curve, poor fit] |  |
| COc1ccc(O[C@H]2C=C[C@@H](c3ccccc3)O[C@H]2COC(=O)CC/C(C)=N\O[C@@H](C)CN2CCCCc3nc(C)c(C)cc32)cc1 |  | inactive: 14.6% [at 12.4 µM] |
| N/C(=N\OC(=O)c1cccc(F)c1)c1cccc([N+](=O)[O-])c1 | inconclusive: 29.9 µM [inhibitor, single point] |  |
| CN(C(=O)COC(=O)c1c2c(nc3ccccc13)CCCC2)c1c(N)n(Cc2ccccc2)c(=O)[nH]c1=O |  | inactive: 16.5% |
| Cc1ccc(C(=O)OCC(=O)Nc2ncc(Cl)cc2Cl)cc1NC(=O)c1ccco1 |  | inactive: 1.27% |

| Compound | Potency | activity change, negative = inhibition |
| --- | --- | --- |
| O=C(c1ccc(Cl)c([N+](=O)[O-])c1)N(Cc1ccc(Cl)cc1)C1CCS(=O)(=O)C1 (stereo not drawn) | inconclusive: 0.112 µM [inhibitor, full curve, poor fit] |  |
| O=C(CSc1nnnn1Cc1ccccc1)c1ccccc1F | inconclusive: 200 µM [inhibitor, partial curve] |  |
| COc1ccc(NS(=O)(=O)c2ccc(O)c(C(=O)OCC(=O)NC3CCCCC3)c2)cc1 | inconclusive: 44.7 µM [inhibitor, single point] |  |
| COc1ccc(OC)c(/C=C/C(=O)OCC(=O)Nc2ccc(Cl)c(S(=O)(=O)N(C)C)c2)c1 | inconclusive: 0.126 µM [inhibitor, full curve, poor fit] |  |
| O=C(COC(=O)C1CCCCC1C(=O)N1CCc2ccccc21)NCc1ccco1 (stereo not drawn) | inconclusive: 39.8 µM [inhibitor, single point] |  |
| COc1cccc(NS(=O)(=O)c2ccc3[nH]cc(C(=O)N(C)Cc4ccco4)c(=O)c3c2)c1 | inconclusive: 31.6 µM [inhibitor, single point] |  |
| CCNC(=O)C1CCCc2c1[nH]c1ccc(Cl)cc21 (stereo not drawn) |  | inactive: 10.3% |
| Cc1cc(C)c(C#N)c(SCC(=O)c2cccs2)n1 | inconclusive: 5.01 µM [inhibitor, single point] |  |
| CCC(=O)N1C(C(=O)N2CCCC2)CSC1c1ccc(OC)cc1 (stereo not drawn) | inconclusive: 7.94 µM [inhibitor, single point] |  |
| COc1ccccc1/C=C/C=c1\sc2nc(=O)c(Cc3ccccc3)nn2c1=O | inconclusive: 31.6 µM [inhibitor, single point] |  |
| COc1ccccc1NS(=O)(=O)c1cc(NC(=S)NCCN2CCOCC2)ccc1N1CCOCC1 | inconclusive: 0.0708 µM [inhibitor, full curve, poor fit] |  |
| O=C(OCc1ccco1)c1cccnc1 | inconclusive: 39.8 µM [inhibitor, single point] |  |
| O=C(CN1C(=O)/C(=C/c2ccco2)SC1=S)Nc1ccc(C(=O)O)c(O)c1 | inconclusive: 26.7 µM [inhibitor, single point] |  |
| Cn1cc(S(=O)(=O)Nc2ccc3c(c2)OCCO3)cn1 | inconclusive: 20 µM [inhibitor, partial curve] |  |
| O=C(Nc1sc2c(c1-c1nc3ccccc3[nH]1)CCCC2)C1CCCC1 | inconclusive: 0.0141 µM [inhibitor, full curve, poor fit] |  |
| CN(C)CCn1nnnc1SCC1=C(C(=O)O)N2C(=O)[C@@H](NC(=O)Cc3csc(N)n3)[C@H]2SC1 | inconclusive: 17.8 µM [inhibitor, single point] |  |
| COC(=O)c1sc(-c2ccccc2)cc1NC(=O)C1CC1 | inconclusive: 39.8 µM [inhibitor, single point] |  |
| O=c1cc(-c2ccccc2)oc2cc(O)c(O)c(O)c12 | active: 794 nM and active: 2.24 µM and active: 5.62 µM |  |
| CCCn1c(=N)n(CC(=O)c2ccc([N+](=O)[O-])cc2)c2ccccc21 | inconclusive: 5.01 µM [inhibitor, full curve, poor fit] |  |
| CSc1ccccc1NC(=O)COc1ccc(Cl)cc1Cl | inconclusive: 44.7 µM [inhibitor, single point] |  |
| Cn1cc(C(=O)Nc2ccc(Cl)cc2)c(C(F)(F)F)n1 | inconclusive: 3.98e-05 µM [inhibitor, full curve] |  |
